Out of some 320,000 compounds screened, about 2,100 (0.66%) were called active. Inconclusive means that the source gave no clear call. Such entries were picked first, then a sample of the others. Calls follow the shape of the dose curve; as a rule, active = well fitted inhibition curve with a large enough effect in the signal ratio, with a control signal flat (not every such curve was filed as active); inconclusive = small, poorly fitted or top-dose-only effect, or effect the other way, or a change in a side signal; inactive = flat fitted curve, though single readings scatter; the % refers to the signal ratio. A potency beside an inconclusive call is a rough fit, not a confirmed value.
Experiment: qHTS Assay for Lipid Storage Modulators in Drosophila S3 Cells
Details: BODIPY lipid droplet fluorescence, 18-24 h, cells fed with added oleic acid; lipid storage change, negative = inhibition: at 46.1 µM (top of the series) unless noted
Procedure, shortened: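 Laser-scanning cytometry quantifies lipid droplet accumulation (500–530 nm total intensity; droplet/cell object ratio) in oleic acid-fed (400 uM added) Drosophila S3 cells treated with a concentration series. 20 uM Triacsin C defined 100% inhibition.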
% is scaled to controls: 0 for no effect and ±100 for the full control effect; potency is read from the fitted curve at half-maximal effect.

Row | SMILES | Potency | lipid storage change, negative = inhibition | outcome
1 | O=C(Cn1c(=O)n(Cc2ccco2)c(=O)c2cc(Cl)ccc21)NCC1CCCO1 (stereo not drawn) | inconclusive: 29.1 µM [activator, single point] |  | 
2 | CCCNC(=O)Cn1cnc2sc(C(=O)NCCN(CC)CC)c(C)c2c1=O | inconclusive: 18.4 µM [activator, single point] |  | 
3 | O=C(N/N=C/c1ccccc1)c1ccc(CN2C(=O)c3cccc4cccc2c34)cc1 |  | inconclusive: 6.34% | 
4 | N#Cc1ccccc1NC1=CC(=O)CCC1 | inconclusive: 4.61 µM [falling, single point] |  | 
5 | Cc1ccc(S(=O)(=O)C2(C(=O)Nc3cccnc3)CC2)cc1 | inconclusive: 14.6 µM [activator, partial curve, poor fit] |  | 
6 | CCCCn1c(N)c(N(CCOC)C(=O)c2ccc(C)c(S(=O)(=O)N3CCCCC3)c2)c(=O)[nH]c1=O |  | inconclusive | 
7 | COc1ccc(OC)c(S(=O)(=O)Nc2cnc3ccccc3c2)c1 | inconclusive: 5.8 µM [activator, partial curve] |  | 
8 | Cc1ccccc1Nc1nnc(SCC2CCCCO2)s1 (stereo not drawn) |  | inconclusive: 6.46% | 
9 | O=C(COC(=O)CN1C(=O)C(=O)c2ccccc21)OCN1C(=O)c2ccccc2C1=O |  | inconclusive: 38.6% | 
10 | COC(=O)c1cc(CNC(=O)c2ccc(S(=O)(=O)N(C)c3ccccc3)cc2)ccc1OC |  | inconclusive: -90.8% | 
11 | CC(=O)c1cccc(S(=O)(=O)NC2CC2)c1 |  | inconclusive: 13.2% | 
12 | CC1=NN(c2ccccc2)C(=O)/C1=C\c1ccc(Oc2ccc([N+](=O)[O-])cc2[N+](=O)[O-])cc1 | inconclusive: 29.1 µM [falling, single point] |  | 
13 | COC(=O)c1ccccc1OCCOc1ccccc1C(=O)OC |  | inconclusive: 4.88% | 
14 | CCc1cccc(C)c1NC(=O)CSc1nnc(C)o1 | inconclusive: 2.31 µM [falling, single point] |  | 
15 | Cc1ccc(S(=O)(=O)Nc2ccc3c(c2)nc(CCN2CCOCC2)n3C)cc1 |  | inconclusive: -25.1% | 
16 | CCn1cc(C(=O)O)c(=O)c2cc(F)c(N3CCN(C(=S)NC(=O)c4cccc(F)c4)CC3)cc21 | inconclusive: 0.092 µM [falling, full curve, poor fit] |  | 
17 | CCSc1nc(C)c(C(C)=O)cc1C#N |  | inconclusive: -0.0252% | 
18 | CCCCC1(C(=O)OCC)CC(CSC(=N)N)OC1=O (stereo not drawn) | inconclusive: 0.0517 µM [falling, full curve, poor fit] |  | 
19 | Oc1ccc(Br)cc1C=Nc1ccc2[nH]ncc2c1 |  | inconclusive: 39.5% | 
20 | O=C(CCc1ccccc1)Nc1ccc(NC(=O)c2ccco2)cc1 |  | inconclusive: 21.5% | 
21 | CC(=O)N(CCC1(C(C)C)CCOC(C)(C)C1)Cc1ccco1 (stereo not drawn) |  | inconclusive: 1.51% | 
22 | COc1cccc(NC(=O)N2CCCCCC2)c1 |  | inconclusive: 62.4% | 
23 | Cc1cccc(NC(=O)c2snc3c(=O)[nH]cnc23)c1 |  | inconclusive: -1.12% | 
24 | COc1cc(CO)cc(Br)c1OCC(=O)N1CCCCC1 |  | inconclusive: 10.3% | 

Of the compounds above, 4 contain a halogen.
Row | SMILES | Potency | lipid storage change, negative = inhibition | outcome
1 | O=C(Cn1c(=O)n(Cc2ccco2)c(=O)c2cc(Cl)ccc21)NCC1CCCO1 (stereo not drawn) | inconclusive: 29.1 µM [activator, single point] |  | 
16 | CCn1cc(C(=O)O)c(=O)c2cc(F)c(N3CCN(C(=S)NC(=O)c4cccc(F)c4)CC3)cc21 | inconclusive: 0.092 µM [falling, full curve, poor fit] |  | 
19 | Oc1ccc(Br)cc1C=Nc1ccc2[nH]ncc2c1 |  | inconclusive: 39.5% | 
24 | COc1cc(CO)cc(Br)c1OCC(=O)N1CCCCC1 |  | inconclusive: 10.3% | 

Further entries

Row | SMILES | Potency | lipid storage change, negative = inhibition | outcome
25 | Cc1ccc(SCC(=O)OC(C)C(=O)NCc2ccccc2)cc1 (stereo not drawn) |  | inconclusive | 
26 | Cc1cc(C(=O)NCCCN(C)C)c2ccccc2n1 |  | inconclusive: 51.6% | 
27 | Cc1ccc2c(c1)cc(CN(Cc1ccc3c(c1)OCO3)S(=O)(=O)c1ccccc1)c1nnnn12 | inconclusive: 1.84 µM [activator, partial curve, poor fit] |  | 
28 | CC(C)CN1C(=O)C(=O)N(CC(=O)N(C)CC(=O)Nc2ccc(F)cc2)C1=O |  | inconclusive: -8.03% | 
29 | Cc1nc(SC(C)C(=O)Nc2c(C)n(C)n(-c3ccccc3)c2=O)nc(C)c1C (stereo not drawn) |  | inconclusive: 0.737% | 
30 | CN(C)CCNC(=O)c1cc2ccccc2oc1=O |  | inconclusive: -23% | 
31 | COc1ccc(C(=O)NC2CCCCCC2)cc1S(=O)(=O)N1CCCC1 |  | inconclusive: 5.21% | 
32 | O=C(CSc1nc2[nH]c(=O)cc(O)c2s1)NCCc1ccccc1 | inconclusive: 6.51 µM [activator, single point] |  | 
33 | NC(=O)c1cc[n+](CC(=O)NC(=O)Nc2ccccc2)cc1 |  | inconclusive: -17% | 
34 | Cc1cccc(OCC2CCCN(Cc3nc(C4CC4)no3)C2)c1 (stereo not drawn) | inconclusive: 6.51 µM [falling, single point] |  | 
35 | CCN(CC(=O)NCCC1=CCCCC1)S(=O)(=O)c1ccccc1 |  | inconclusive: 26.1% | 
36 | CC1CCN(C(=S)c2cn(Cc3cccc(F)c3)c3ccccc23)CC1 |  | inconclusive: 8.8% | 
37 | CN(C)c1ccc(CNC2C3CC4CC(C3)CC2C4)cc1 (stereo not drawn) |  | inconclusive: 0.81% | 
38 | CCOC(=O)c1c(C)c(C(=O)NC2CCCCCC2)c(C)n1C |  | inconclusive: 13.4% | 
39 | Cc1cc2n(n1)C(c1ccc3c(c1)OCO3)Nc1c(C)cccc1-2 (stereo not drawn) | inconclusive: 0.164 µM [activator, full curve, poor fit] |  | 
40 | CCCN(CC(=O)Nc1ccccc1OC)C(=O)Cc1ccccc1F |  |  | inactive [at 46.1 µM]
41 | COc1ccc(-n2c(-c3cc(-c4ccccc4)sc3N)n[nH]c2=S)cc1 | inconclusive: 1.84 µM [activator, full curve] |  | 
42 | Cc1c(C(=O)N2CCN(c3ccccc3)CC2)sc2ncnc(N3CCN(c4ccccn4)CC3)c12 | inconclusive: 6.51 µM [activator, single point] |  | 
43 | Cc1ccc(C)c(S(=O)(=O)N2CCCOC2CNC(=O)C(=O)NCc2ccc3c(c2)OCO3)c1 (stereo not drawn) | inconclusive: 0.92 µM [activator, single point] |  | 
44 | COc1ccc(C(C(=O)NC2CCCCC2)N(C(=O)Cc2c[nH]c3ccccc23)c2ccccc2)cc1OC (stereo not drawn) |  | inconclusive: 11.9% | 
45 | CC1CCCC(C)N1C(=O)CN1C(=O)C(C)(C)Oc2ccc(C(=O)NC3CCCCC3)cc21 (stereo not drawn) | inconclusive: 1.03 µM [cytotoxic, full curve] |  | 
46 | O=C(CCOc1ccccc1)Nc1ccc(S(=O)(=O)N2CCCC2)cc1 |  | inactive: -4.91% | 
47 | CC(Oc1ccccc1)C(=O)Nc1c2c(nn1-c1ccccc1)CS(=O)C2 (stereo not drawn) |  | inconclusive: -8.35% | 
48 | O=S(=O)(NC1CCC(CNS(=O)(=O)c2c(F)cccc2F)CC1)c1ccc2c(c1)OCCO2 (stereo not drawn) |  | inconclusive: 22.8% | 

Source: PubChem BioAssay AID2685 (National Center for Advancing Translational Sciences (NCATS), 2010)
